Assay results taken from the supplement of paper PMC4604168 (melanoma cell lines).
Some of the results follow. Single values are uncertain, as repeats are few or missing.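 Imaging used 1,536-well plates; nuclei positive for cleaved PARP by antibody were divided by total DNA-stained nuclei to yield the apoptosis fraction. Doses for screening kept most cells viable, and cell lines differ markedly in resting and induced cleaved-PARP levels.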

How the values were obtained:
Test in all cases: cleaved PARP positive nuclei fraction relative to DMSO control; melanoma cells; higher = more apoptosis
Conditions in all cases: library dose: low library concentration; 72 h
[1] = test system: MZ2-MEL
[2] = test system: MeWo
[3] = test system: RPMI7951
[4] = test system: RVH-421
[5] = test system: SkMel28
[6] = test system: SkMel30
[7] = test system: SkMel5
[8] = test system: UACC257
[9] = test system: UACC62
[10] = test system: SkMel2

| Structure (SMILES) | cleaved PARP positive nuclei fraction [1] | cleaved PARP positive nuclei fraction [2] | cleaved PARP positive nuclei fraction [3] | cleaved PARP positive nuclei fraction [4] | cleaved PARP positive nuclei fraction [5] | cleaved PARP positive nuclei fraction [6] | cleaved PARP positive nuclei fraction [7] | cleaved PARP positive nuclei fraction [8] | cleaved PARP positive nuclei fraction [9] | cleaved PARP positive nuclei fraction [10] |
| --- | --- | --- | --- | --- | --- | --- | --- | --- | --- | --- |
| C[C@@H]1CCN(C(=O)CC#N)C[C@@H]1N(C)c1ncnc2[nH]ccc12 + Cc1cc([N+](=O)[O-])ccc1NS(=O)(=O)c1cc(Cl)ccc1Cl [FH535] (first compound 1 µM, partner dose 1 µM) | 88.3% | 56.4% | 279% | 215% | 89.8% | 121% | 173% | 127% | 78.9% | – |
| Cn1c(Nc2ccc(C(F)(F)F)cc2)nc2cc(Oc3ccnc(-c4ncc(C(F)(F)F)[nH]4)c3)ccc21 + COc1cc2ncnc(Nc3ccc(Oc4ccccc4)cc3)c2cc1OC [SrcI1] (first compound 0.08 µM, partner dose 2 µM) | 175% | 143% | 121% | 64.2% | 224% | 31.3% | 195% | 858% | 72.5% | – |
| Cn1nnc2c(C(N)=O)ncn2c1=O [temozolomide] + Cn1cc(/C=C2\C(=O)Nc3cccnc32)c2ccccc21 [GW441756] (first compound 2 µM, partner dose 0.4 µM) | 51.1% | 48.7% | 84.2% | 212% | 154% | 68.4% | 143% | 131% | 103% | – |
| C=CCNC1=C2C[C@@H](C)C[C@H](OC)[C@H](O)[C@@H](C)/C=C(\C)[C@H](OC(N)=O)[C@@H](OC)/C=C\C=C(/C)C(=O)NC(=CC1=O)C2=O [Tanespimycin] + O=C(Nc1cccc(Cl)c1)Nc1ncc(CCNc2ncnc3ccsc23)s1 [SNS314] (first compound 0.002 µM, partner dose 0.0008 µM) | – | 216% | 119% | 42.8% | 39.8% | 70.7% | 134% | 299% | 133% | 132% |
| Cn1cncc1[C@@](N)(c1ccc(Cl)cc1)c1ccc2c(c1)c(-c1cccc(Cl)c1)cc(=O)n2C [tipifarnib] + CCN(CC)CCCCNc1ncc2cc(-c3cc(OC)cc(OC)c3)c(NC(=O)NC(C)(C)C)nc2n1 [PD173074] (first compound 0.01 µM, partner dose 0.1 µM) | 78% | 106% | 43.3% | 123% | 125% | 51.6% | 22.5% | 190% | 85% | – |
| COc1cc(Nc2ncc(F)c(Nc3ccc4c(n3)NC(=O)C(C)(C)O4)n2)cc(OC)c1OC [Tamatinib] + O=S(=O)(c1ccccc1)N(CC(F)(F)F)c1ccc(C(O)(C(F)(F)F)C(F)(F)F)cc1 [T0901317] (first compound 0.4 µM, partner dose 1.4 µM) | 145% | 134% | 118% | 41.8% | 203% | 39.2% | 62.1% | 205% | 84.7% | – |
| O=C(CCCCCCC(=O)Nc1ccccc1)NO [vorinostat] + OCCn1cc(-c2cnc3nnn(Cc4ccc5ncccc5c4)c3n2)cn1 [PF04217903] (first compound 0.08 µM, partner dose 1 µM) | – | 163% | 94.1% | 51.2% | 73.5% | 65.2% | 151% | 84.4% | 235% | 74.3% |
| CO[C@@H]1[C@H](N(C)C(=O)c2ccccc2)C[C@H]2O[C@]1(C)n1c3ccccc3c3c4c(c5c6ccccc6n2c5c31)C(=O)NC4 [Midostaurin] + O=S(=O)(c1ccccc1)N(CC(F)(F)F)c1ccc(C(O)(C(F)(F)F)C(F)(F)F)cc1 [T0901317] (first compound 0.08 µM, partner dose 1.4 µM) | 83.1% | 69.9% | 96.8% | 75.5% | 129% | 19.4% | 156% | 63.5% | 304% | – |
| NC(=O)Nc1cc(-c2cccc(F)c2)sc1C(=O)N[C@H]1CCCNC1 + O=C(O)C(=O)Nc1sc2c(c1C(=O)O)CCNC2 [TCS401] (first compound 0.02 µM, partner dose 1.66667 µM) | 90% | 50.1% | 90.2% | 69.7% | 111% | 34.5% | 120% | 69.3% | 78.9% | – |
| CO[C@@H]1[C@H](N(C)C(=O)c2ccccc2)C[C@H]2O[C@]1(C)n1c3ccccc3c3c4c(c5c6ccccc6n2c5c31)C(=O)NC4 [Midostaurin] + O=C1NC(=O)/C(=C/c2ccc(-c3ccc(F)cc3O)o2)S1 [AS252424] (first compound 0.08 µM, partner dose 1 µM) | 75.1% | 63.1% | 90.9% | 58.9% | 230% | 12.5% | 87% | 135% | 136% | – |
| CC(C)(C)c1cnc(CSc2cnc(NC(=O)C3CCNCC3)s2)o1 + N#Cc1c(O)c2c(-c3ccc(-c4ccccc4O)cc3)csc2[nH]c1=O [A769662] (first compound 0.01 µM, partner dose 2 µM) | 74% | 81.7% | 52.3% | 139% | 216% | 32% | 55.3% | 59.7% | 41.1% | – |
| C[C@]1(c2nc3c(C(N)=O)cccc3[nH]2)CCCN1 [Veliparib] + O=C(O)C(=O)Nc1sc2c(c1C(=O)O)CCNC2 [TCS401] (first compound 1.4 µM, partner dose 1.66667 µM) | 75.4% | 93.7% | 67.9% | 19.5% | 74.7% | 66.6% | 43.9% | 118% | 170% | – |
| Clc1ccc(Nc2nnc(Cc3ccncc3)c3ccccc23)cc1 [vatalanib] + COc1cc(Nc2ncc(F)c(Nc3ccc4c(n3)NC(=O)C(C)(C)O4)n2)cc(OC)c1OC [Tamatinib] (first compound 2 µM, partner dose 0.4 µM) | – | 136% | 147% | 37.1% | 31.4% | 99.9% | 66.7% | 76.7% | 196% | 48.4% |
| COCC[n+]1c2c(n(Cc3cnccn3)c1C)C(=O)c1ccccc1C2=O + COc1ccc(-c2ccc3c(N4CCOCC4)nc(N4C[C@@H](C)O[C@@H](C)C4)nc3n2)cc1CO [KU0063794] (first compound 0.0004 µM, partner dose 0.02 µM) | 476% | 65.4% | 112% | 82.8% | 162% | 36.4% | 92.8% | 98.9% | 91.2% | – |
| COCC[n+]1c2c(n(Cc3cnccn3)c1C)C(=O)c1ccccc1C2=O + CC(C)CCN1c2nc(Nc3cc(F)c(O)c(F)c3)ncc2N(C)C(=O)C1C [BID1870] (first compound 0.0004 µM, partner dose 0.2 µM) | 333% | 42.3% | 84.7% | 57.6% | 159% | 119% | 219% | 205% | 130% | – |
| NC(=O)Nc1cc(-c2cccc(F)c2)sc1C(=O)N[C@H]1CCCNC1 + O=C1NC(=O)/C(=C/c2ccc(-c3ccc(F)cc3O)o2)S1 [AS252424] (first compound 0.02 µM, partner dose 1 µM) | 188% | 57.6% | 176% | 24.2% | 66.6% | 33.6% | 103% | 93.6% | 32.6% | – |
| C#Cc1cccc(Nc2ncnc3cc(OCCOC)c(OCCOC)cc23)c1 [erlotinib] + COc1cc(N2CCC(N3CCN(C)CC3)CC2)ccc1Nc1ncc(Cl)c(Nc2ccccc2S(=O)(=O)C(C)C)n1 [NVP-TAE684] (first compound 0.8 µM, partner dose 0.08 µM) | 201% | 338% | 75.9% | 63.7% | 165% | 24.7% | 41.8% | 136% | 166% | – |
| Nc1cccc2c1CN(C1CCC(=O)NC1=O)C2=O (stereo not drawn) [lenalidomide] + COc1cc2c(Oc3ccc4[nH]c(C)cc4c3F)ncnc2cc1OCCCN1CCCC1 [cediranib] (first compound 1 µM, partner dose 0.4 µM) | – | 97.9% | 81.2% | 26.6% | 66.9% | 56% | 32.8% | 49.3% | 116% | – |
| COCC[n+]1c2c(n(Cc3cnccn3)c1C)C(=O)c1ccccc1C2=O + COc1cc(N2CCC(N3CCN(C)CC3)CC2)ccc1Nc1ncc(Cl)c(Nc2ccccc2S(=O)(=O)C(C)C)n1 [NVP-TAE684] (first compound 0.0004 µM, partner dose 0.08 µM) | – | 193% | 134% | 113% | 87.5% | 340% | 86.6% | 146% | 53% | – |
| CO[C@@H]1[C@H](N(C)C(=O)c2ccccc2)C[C@H]2O[C@]1(C)n1c3ccccc3c3c4c(c5c6ccccc6n2c5c31)C(=O)NC4 [Midostaurin] + CN(NC(=O)CC(=O)NN(C)C(=S)c1ccccc1)C(=S)c1ccccc1 [STA4783] (first compound 0.08 µM, partner dose 0.006 µM) | – | 261% | 112% | 108% | 58.9% | 61.3% | 35.3% | 164% | 65% | – |
| CO[C@@H]1[C@H](N(C)C(=O)c2ccccc2)C[C@H]2O[C@]1(C)n1c3ccccc3c3c4c(c5c6ccccc6n2c5c31)C(=O)NC4 [Midostaurin] + Oc1nc(-c2ccc(C(F)(F)F)cc2)nc2c1CSCC2 [XAV939] (first compound 0.08 µM, partner dose 2 µM) | – | 257% | 120% | 115% | 89% | 53.9% | 149% | 111% | 151% | – |
| CC(=O)c1c(C)c2cnc(Nc3ccc(N4CCNCC4)cn3)nc2n(C2CCCC2)c1=O [palbociclib] + COc1ccc(COc2ccc(Cc3cnc(N)nc3N)cc2OC)cc1 [GW2580] (first compound 0.04 µM, partner dose 1 µM) | – | 38% | 194% | 143% | 164% | 159% | 105% | 305% | 97.5% | – |

Single entries from the results shown:
Under cleaved PARP positive nuclei fraction [8], NC(=O)Nc1cc(-c2cccc(F)c2)sc1C(=O)N[C@H]1CCCNC1 + O=C1NC(=O)/C(=C/c2ccc(-c3ccc(F)cc3O)o2)S1 [AS252424] (first compound 0.02 µM, partner dose 1 µM) has 93.6%
Under cleaved PARP positive nuclei fraction [5], CO[C@@H]1[C@H](N(C)C(=O)c2ccccc2)C[C@H]2O[C@]1(C)n1c3ccccc3c3c4c(c5c6ccccc6n2c5c31)C(=O)NC4 [Midostaurin] + Oc1nc(-c2ccc(C(F)(F)F)cc2)nc2c1CSCC2 [XAV939] (first compound 0.08 µM, partner dose 2 µM) has 89%
